From US20030073818A1
No constants are given. Whether binding was seen depends on the method and setting. Binding seen in cells or lysates may run through a third protein. Some entries that bind do so weakly or less than the wild type. Where a sequence is shown, tags or fusion partners need not be part of it.

Amino acid sequences for entries named in this document (tags omitted).
UniProt P21728: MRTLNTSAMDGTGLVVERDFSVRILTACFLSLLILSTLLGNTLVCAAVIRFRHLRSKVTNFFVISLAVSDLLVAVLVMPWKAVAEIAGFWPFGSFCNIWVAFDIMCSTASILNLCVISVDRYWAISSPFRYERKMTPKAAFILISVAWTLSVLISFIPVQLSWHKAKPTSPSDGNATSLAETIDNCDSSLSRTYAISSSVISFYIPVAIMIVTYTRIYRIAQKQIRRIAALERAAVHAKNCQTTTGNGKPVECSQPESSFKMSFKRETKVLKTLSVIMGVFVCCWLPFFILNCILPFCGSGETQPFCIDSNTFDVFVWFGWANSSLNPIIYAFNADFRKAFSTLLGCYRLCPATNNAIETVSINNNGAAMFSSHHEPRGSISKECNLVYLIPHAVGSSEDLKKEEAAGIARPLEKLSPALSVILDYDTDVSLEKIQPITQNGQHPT

Molecular target: full-length human D1 dopamine receptor stably expressed in D1 HEK293 cells (human) (UniProt P21728)
Experiment: co-immunoprecipitation with GFP mab from transfected D1-HEK293 cells

binding: binds
B1: EGFP-P24 fusion protein (P24/Calcyon tagged at its N-terminus by enhanced green fluorescent protein) (protein, not shown: large carriers)
chain: MVKLGCSFSGKPGKDPGDQDGAAMDSVPLISPLDISQLQPPLPDQVVIKTQTEYQLSSPDQQNFPDLEGQRLNCSHPEEGRRLPTARMIAFAMALLGCVLIMYKAIWYDQFTCPDGFLLRHKICTPLTLEMYYTEMDPERHRSILAAIGAYPLSRKHGTETPAAWGDGYRAAKEERKGPTQAGAAAAATEPPGKPSAKAEKEAARKAAGSAAPPPAQ
